Results are given in words; binding and its absence hold for the method and conditions named. Binding seen in cells or lysates may run through a third protein. These calls come from enrichment with a bait or labelling near it, and not all partners need be listed.
Target: HECT and RLD domain-containing E3 ubiquitin-protein ligase 2 (HERC2) (human (endogenous in Huh7)) (UniProt O95714)
Assay: affinity purification with mass spectrometry; Huh7 cells treated with 50 ng/ml IL-6 for 20 min; lysate precipitated with an antibody against HERC2, SDS-PAGE, silver staining; band at 40-55 kDa cut out and analysed by 4-D label-free quantitative proteomics

By UniProt entry, the sequences of proteins in these tests, tags left out.
UniProt O95714: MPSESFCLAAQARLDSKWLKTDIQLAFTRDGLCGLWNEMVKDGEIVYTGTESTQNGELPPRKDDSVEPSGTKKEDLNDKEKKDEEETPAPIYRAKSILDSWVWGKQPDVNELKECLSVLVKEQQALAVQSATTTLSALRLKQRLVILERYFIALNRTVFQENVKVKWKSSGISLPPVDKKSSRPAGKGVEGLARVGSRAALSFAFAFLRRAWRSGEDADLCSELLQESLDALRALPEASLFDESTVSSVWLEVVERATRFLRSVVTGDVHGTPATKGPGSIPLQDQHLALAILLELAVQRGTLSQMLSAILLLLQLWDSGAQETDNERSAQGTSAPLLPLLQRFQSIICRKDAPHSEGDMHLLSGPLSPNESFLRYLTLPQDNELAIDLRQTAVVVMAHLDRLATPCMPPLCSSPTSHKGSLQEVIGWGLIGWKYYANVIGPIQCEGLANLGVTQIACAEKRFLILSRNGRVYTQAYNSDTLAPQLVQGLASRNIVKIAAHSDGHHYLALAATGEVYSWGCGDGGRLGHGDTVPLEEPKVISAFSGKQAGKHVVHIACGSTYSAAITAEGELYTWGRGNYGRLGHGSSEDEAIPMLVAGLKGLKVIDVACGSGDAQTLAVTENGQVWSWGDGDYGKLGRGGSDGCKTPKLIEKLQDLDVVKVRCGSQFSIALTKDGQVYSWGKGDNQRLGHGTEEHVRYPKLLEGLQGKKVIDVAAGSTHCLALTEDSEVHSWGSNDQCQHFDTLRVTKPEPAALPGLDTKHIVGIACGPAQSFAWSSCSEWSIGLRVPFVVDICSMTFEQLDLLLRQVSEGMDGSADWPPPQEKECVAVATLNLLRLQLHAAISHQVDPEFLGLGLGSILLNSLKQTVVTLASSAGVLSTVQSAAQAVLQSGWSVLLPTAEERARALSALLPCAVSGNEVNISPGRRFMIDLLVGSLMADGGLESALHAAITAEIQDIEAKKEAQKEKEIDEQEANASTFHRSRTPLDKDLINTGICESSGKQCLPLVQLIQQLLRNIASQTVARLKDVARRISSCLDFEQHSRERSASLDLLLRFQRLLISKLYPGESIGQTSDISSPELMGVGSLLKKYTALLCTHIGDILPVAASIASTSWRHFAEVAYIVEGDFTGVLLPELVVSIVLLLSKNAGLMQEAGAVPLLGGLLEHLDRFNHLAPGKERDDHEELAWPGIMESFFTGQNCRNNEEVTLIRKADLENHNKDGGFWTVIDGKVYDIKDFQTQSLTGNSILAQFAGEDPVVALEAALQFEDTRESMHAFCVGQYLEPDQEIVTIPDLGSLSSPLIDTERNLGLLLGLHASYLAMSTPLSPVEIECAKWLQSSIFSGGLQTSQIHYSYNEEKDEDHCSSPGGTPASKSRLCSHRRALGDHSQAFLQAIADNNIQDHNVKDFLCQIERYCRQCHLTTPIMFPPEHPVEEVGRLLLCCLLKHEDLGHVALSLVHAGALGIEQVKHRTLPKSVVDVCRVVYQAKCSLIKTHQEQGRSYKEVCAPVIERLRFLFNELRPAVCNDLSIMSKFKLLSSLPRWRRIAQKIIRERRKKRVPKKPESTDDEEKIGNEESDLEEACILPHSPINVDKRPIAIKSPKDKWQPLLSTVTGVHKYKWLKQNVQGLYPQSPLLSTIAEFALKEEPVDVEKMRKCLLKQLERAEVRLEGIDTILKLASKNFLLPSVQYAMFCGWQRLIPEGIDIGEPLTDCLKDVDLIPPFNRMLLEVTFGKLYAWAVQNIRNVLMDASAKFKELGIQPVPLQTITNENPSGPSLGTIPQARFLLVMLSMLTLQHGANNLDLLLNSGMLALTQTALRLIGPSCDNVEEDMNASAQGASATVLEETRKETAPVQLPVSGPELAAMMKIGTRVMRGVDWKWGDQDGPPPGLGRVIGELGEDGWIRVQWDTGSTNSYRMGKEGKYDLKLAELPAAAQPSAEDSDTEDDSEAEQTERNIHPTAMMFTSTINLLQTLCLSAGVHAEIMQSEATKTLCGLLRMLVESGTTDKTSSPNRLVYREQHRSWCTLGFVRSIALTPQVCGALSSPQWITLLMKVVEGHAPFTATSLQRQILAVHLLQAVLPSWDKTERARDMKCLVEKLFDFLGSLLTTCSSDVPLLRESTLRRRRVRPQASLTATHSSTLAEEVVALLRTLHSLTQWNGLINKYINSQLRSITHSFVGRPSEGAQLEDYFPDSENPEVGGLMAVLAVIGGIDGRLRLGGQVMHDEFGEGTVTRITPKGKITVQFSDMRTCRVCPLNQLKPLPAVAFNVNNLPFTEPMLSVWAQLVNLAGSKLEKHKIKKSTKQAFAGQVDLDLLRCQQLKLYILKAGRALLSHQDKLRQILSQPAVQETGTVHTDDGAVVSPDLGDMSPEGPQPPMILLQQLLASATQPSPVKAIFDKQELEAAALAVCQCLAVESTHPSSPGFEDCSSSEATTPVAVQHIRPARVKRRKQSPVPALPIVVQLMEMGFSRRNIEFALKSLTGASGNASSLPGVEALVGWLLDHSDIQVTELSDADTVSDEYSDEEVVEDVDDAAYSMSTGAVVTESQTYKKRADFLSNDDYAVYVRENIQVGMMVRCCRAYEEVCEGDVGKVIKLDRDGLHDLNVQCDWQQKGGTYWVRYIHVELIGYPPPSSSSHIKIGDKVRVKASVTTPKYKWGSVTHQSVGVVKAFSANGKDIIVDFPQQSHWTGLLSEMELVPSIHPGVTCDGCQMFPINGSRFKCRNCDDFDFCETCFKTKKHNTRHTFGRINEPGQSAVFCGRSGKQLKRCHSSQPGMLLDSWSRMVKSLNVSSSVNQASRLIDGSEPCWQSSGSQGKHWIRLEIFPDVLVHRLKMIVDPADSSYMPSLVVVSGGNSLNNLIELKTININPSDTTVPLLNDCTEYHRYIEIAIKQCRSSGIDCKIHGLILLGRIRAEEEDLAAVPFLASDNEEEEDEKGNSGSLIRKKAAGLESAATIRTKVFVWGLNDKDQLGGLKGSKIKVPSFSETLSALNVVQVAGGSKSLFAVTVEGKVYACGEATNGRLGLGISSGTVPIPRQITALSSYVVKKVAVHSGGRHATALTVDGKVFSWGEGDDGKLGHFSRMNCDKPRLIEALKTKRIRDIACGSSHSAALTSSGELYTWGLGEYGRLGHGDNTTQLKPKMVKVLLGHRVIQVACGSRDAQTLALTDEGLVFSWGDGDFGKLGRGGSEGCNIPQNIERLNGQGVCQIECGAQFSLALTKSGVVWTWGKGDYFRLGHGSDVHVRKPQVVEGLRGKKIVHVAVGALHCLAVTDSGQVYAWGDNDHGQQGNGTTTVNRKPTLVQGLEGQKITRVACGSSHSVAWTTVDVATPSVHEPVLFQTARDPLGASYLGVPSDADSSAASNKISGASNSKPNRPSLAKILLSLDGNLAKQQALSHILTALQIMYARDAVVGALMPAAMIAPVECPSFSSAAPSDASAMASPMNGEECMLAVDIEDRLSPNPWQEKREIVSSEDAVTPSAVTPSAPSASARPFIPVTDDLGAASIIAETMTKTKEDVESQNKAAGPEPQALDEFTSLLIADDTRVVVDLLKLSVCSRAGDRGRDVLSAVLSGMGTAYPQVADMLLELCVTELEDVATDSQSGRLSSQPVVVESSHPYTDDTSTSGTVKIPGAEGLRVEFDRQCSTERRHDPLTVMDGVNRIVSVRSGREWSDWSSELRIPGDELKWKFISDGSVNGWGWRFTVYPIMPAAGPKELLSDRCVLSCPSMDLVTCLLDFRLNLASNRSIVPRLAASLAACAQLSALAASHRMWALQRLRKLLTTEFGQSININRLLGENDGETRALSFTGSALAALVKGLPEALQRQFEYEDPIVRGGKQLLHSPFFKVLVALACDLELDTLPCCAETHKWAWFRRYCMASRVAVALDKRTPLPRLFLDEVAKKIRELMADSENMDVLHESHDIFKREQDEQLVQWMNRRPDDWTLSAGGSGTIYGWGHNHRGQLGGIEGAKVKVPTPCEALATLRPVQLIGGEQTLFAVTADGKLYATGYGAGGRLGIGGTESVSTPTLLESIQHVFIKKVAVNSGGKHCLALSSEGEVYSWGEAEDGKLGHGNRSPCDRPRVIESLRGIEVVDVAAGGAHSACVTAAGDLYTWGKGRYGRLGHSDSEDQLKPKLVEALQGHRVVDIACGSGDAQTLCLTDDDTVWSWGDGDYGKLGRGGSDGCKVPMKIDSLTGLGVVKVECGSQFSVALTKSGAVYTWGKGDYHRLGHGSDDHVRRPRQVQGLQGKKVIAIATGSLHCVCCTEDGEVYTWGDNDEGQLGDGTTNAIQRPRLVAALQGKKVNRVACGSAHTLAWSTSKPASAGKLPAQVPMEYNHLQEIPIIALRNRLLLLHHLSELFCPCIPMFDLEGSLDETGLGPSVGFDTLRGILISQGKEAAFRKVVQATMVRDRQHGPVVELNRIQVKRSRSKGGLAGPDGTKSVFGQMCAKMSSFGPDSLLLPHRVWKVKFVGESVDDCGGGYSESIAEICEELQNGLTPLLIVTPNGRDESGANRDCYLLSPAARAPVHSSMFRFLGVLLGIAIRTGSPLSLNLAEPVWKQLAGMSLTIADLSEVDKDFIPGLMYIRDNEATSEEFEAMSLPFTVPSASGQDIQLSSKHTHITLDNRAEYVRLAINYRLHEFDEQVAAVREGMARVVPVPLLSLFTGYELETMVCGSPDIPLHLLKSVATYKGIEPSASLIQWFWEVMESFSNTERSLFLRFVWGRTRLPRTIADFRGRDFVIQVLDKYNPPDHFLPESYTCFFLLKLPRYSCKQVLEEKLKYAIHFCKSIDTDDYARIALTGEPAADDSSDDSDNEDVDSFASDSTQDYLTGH

B1: protein tyrosine phosphatase 1B (PTP1B) (protein, UniProt P18031 1-435)
chain: MEMEKEFEQIDKSGSWAAIYQDIRHEASDFPCRVAKLPKNKNRNRYRDVSPFDHSRIKLHQEDNDYINASLIKMEEAQRSYILTQGPLPNTCGHFWEMVWEQKSRGVVMLNRVMEKGSLKCAQYWPQKEEKEMIFEDTNLKLTLISEDIKSYYTVRQLELENLTTQETREILHFHYTTWPDFGVPESPASFLNFLFKVRESGSLSPEHGPVVVHCSAGIGRSGTFCLADTCLLLMDKRKDPSSVDIKKVLLEMRKFRMGLIQTADQLRFSYLAVIEGAKFIMGDSSVQDQWKELSHEDLEPPPEHIPPPPRPPKRILEPHNGKCREFFPNHQWVKEETQEDKDCPIKEEKGSPLNAAPYGIESMSQDTEVRSRVVGGSLRGAQAASPAKGEPSLPEKDEDHALSYWKPFLVNMCVATVLTAGAYLCYRFLFNSNT
binding: binds

Reference: article PMC9890722
